From the supplement of paper PMC8728848
This is one part of the list.

Assays:
Assay in all cases: glycan array binding signal (z-score within array); higher = stronger binding
Settings in all cases: glycan notation: IUPAC condensed, linker removed
GlcNAc(b1-3)Gal(b1-4)Glc = biological target: GlcNAc(b1-3)Gal(b1-4)Glc
Method in brief: (§1)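 Glycan array binding is given as a within-array Z-score, which can be read as non-binding when negative. The arrays, 3228 of them, came from the Consortium for Functional Glycomics database and were retained only where the protein sequence was available. Z-scores were averaged across arrays of the same protein sequence at different concentrations or buffers and across linkers.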

[1] = biological target: GlcNAc(b1-3)Gal(b1-4)GlcNAc
Method in brief: as §1

[2] = biological target: GlcNAc(b1-3)Gal(b1-4)GlcNAc(b1-2)Man(a1-3)[GlcNAc(b1-3)Gal(b1-4)GlcNAc(b1-2)Man(a1-6)]Man(b1-4)GlcNAc(b1-4)GlcNAc
Method in brief: as §1

[3] = biological target: GlcNAc(b1-3)Gal(b1-4)GlcNAc(b1-2)Man(a1-3)[GlcNAc(b1-3)Gal(b1-4)GlcNAc(b1-2)Man(a1-6)]Man(b1-4)GlcNAc(b1-4)[Fuc(a1-6)]GlcNAc
Method in brief: as §1

[4] = biological target: GlcNAc(b1-3)Gal(b1-4)GlcNAc(b1-2)[GlcNAc(b1-3)Gal(b1-4)GlcNAc(b1-6)]Man(a1-6)[GlcNAc(b1-3)Gal(b1-4)GlcNAc(b1-2)Man(a1-3)]Man(b1-4)GlcNAc(b1-4)GlcNAc
Method in brief: as §1

[5] = biological target: GlcNAc(b1-3)Gal(b1-4)GlcNAc(b1-3)Gal(b1-4)GlcNAc
Method in brief: as §1

[6] = biological target: GlcNAc(b1-3)Gal(b1-4)GlcNAc(b1-3)Gal(b1-4)GlcNAc(b1-2)Man(a1-3)[GlcNAc(b1-3)Gal(b1-4)GlcNAc(b1-3)Gal(b1-4)GlcNAc(b1-2)Man(a1-6)]Man(b1-4)GlcNAc(b1-4)GlcNAc
Method in brief: as §1

[7] = biological target: GlcNAc(b1-3)Gal(b1-4)GlcNAc(b1-3)Gal(b1-4)GlcNAc(b1-2)Man(a1-3)[GlcNAc(b1-3)Gal(b1-4)GlcNAc(b1-3)Gal(b1-4)GlcNAc(b1-2)Man(a1-6)]Man(b1-4)GlcNAc(b1-4)[Fuc(a1-6)]GlcNAc
Method in brief: as §1

[8] = biological target: GlcNAc(b1-3)Gal(b1-4)GlcNAc(b1-3)Gal(b1-4)GlcNAc(b1-2)[GlcNAc(b1-3)Gal(b1-4)GlcNAc(b1-3)Gal(b1-4)GlcNAc(b1-6)]Man(a1-6)[GlcNAc(b1-3)Gal(b1-4)GlcNAc(b1-3)Gal(b1-4)GlcNAc(b1-2)Man(a1-3)]Man(b1-4)GlcNAc(b1-4)[Fuc(a1-6)]GlcNAc
Method in brief: as §1

[9] = biological target: GlcNAc(b1-3)Gal(b1-4)GlcNAc(b1-3)Gal(b1-4)GlcNAc(b1-3)Gal(b1-4)GlcNAc(b1-2)Man(a1-3)[GlcNAc(b1-3)Gal(b1-4)GlcNAc(b1-3)Gal(b1-4)GlcNAc(b1-3)Gal(b1-4)GlcNAc(b1-2)Man(a1-6)]Man(b1-4)GlcNAc(b1-4)GlcNAc
Method in brief: as §1

[10] = biological target: GlcNAc(b1-3)Gal(b1-4)GlcNAc(b1-3)Gal(b1-4)GlcNAc(b1-3)Gal(b1-4)GlcNAc(b1-2)Man(a1-3)[GlcNAc(b1-3)Gal(b1-4)GlcNAc(b1-3)Gal(b1-4)GlcNAc(b1-3)Gal(b1-4)GlcNAc(b1-2)Man(a1-6)]Man(b1-4)GlcNAc(b1-4)[Fuc(a1-6)]GlcNAc
Method in brief: as §1

[11] = biological target: GlcNAc(b1-3)Gal(b1-4)GlcNAc(b1-3)Gal(b1-4)GlcNAc(b1-3)Gal(b1-4)GlcNAc(b1-2)[GlcNAc(b1-3)Gal(b1-4)GlcNAc(b1-3)Gal(b1-4)GlcNAc(b1-3)Gal(b1-4)GlcNAc(b1-6)]Man(a1-6)[GlcNAc(b1-3)Gal(b1-4)GlcNAc(b1-3)Gal(b1-4)GlcNAc(b1-3)Gal(b1-4)GlcNAc(b1-2)Man(a1-3)]Man(b1-4)GlcNAc(b1-4)[Fuc(a1-6)]GlcNAc
Method in brief: as §1

[12] = biological target: GlcNAc(b1-3)Gal(b1-4)GlcNAc(b1-3)Gal(b1-4)GlcNAc(b1-3)Gal(b1-4)GlcNAc(b1-3)Gal(b1-4)GlcNAc(b1-2)Man(a1-3)[GlcNAc(b1-3)Gal(b1-4)GlcNAc(b1-3)Gal(b1-4)GlcNAc(b1-3)Gal(b1-4)GlcNAc(b1-3)Gal(b1-4)GlcNAc(b1-2)Man(a1-6)]Man(b1-4)GlcNAc(b1-4)GlcNAc
Method in brief: as §1

[13] = biological target: GlcNAc(b1-3)Gal(b1-4)GlcNAc(b1-3)Gal(b1-4)GlcNAc(b1-3)Gal(b1-4)GlcNAc(b1-3)Gal(b1-4)GlcNAc(b1-2)Man(a1-3)[GlcNAc(b1-3)Gal(b1-4)GlcNAc(b1-3)Gal(b1-4)GlcNAc(b1-3)Gal(b1-4)GlcNAc(b1-3)Gal(b1-4)GlcNAc(b1-2)Man(a1-6)]Man(b1-4)GlcNAc(b1-4)[Fuc(a1-6)]GlcNAc
Method in brief: as §1

[14] = biological target: GlcNAc(b1-3)Gal(b1-4)GlcNAc(b1-3)Gal(b1-4)GlcNAc(b1-3)Gal(b1-4)GlcNAc(b1-3)Gal(b1-4)GlcNAc(b1-2)[GlcNAc(b1-3)Gal(b1-4)GlcNAc(b1-3)Gal(b1-4)GlcNAc(b1-3)Gal(b1-4)GlcNAc(b1-3)Gal(b1-4)GlcNAc(b1-6)]Man(a1-6)[GlcNAc(b1-3)Gal(b1-4)GlcNAc(b1-3)Gal(b1-4)GlcNAc(b1-3)Gal(b1-4)GlcNAc(b1-3)Gal(b1-4)GlcNAc(b1-2)Man(a1-3)]Man(b1-4)GlcNAc(b1-4)[Fuc(a1-6)]GlcNAc
Method in brief: as §1

[15] = biological target: GlcNAc(b1-3)Gal(b1-4)GlcNAc(b1-3)Gal(b1-4)GlcNAc(b1-3)GalNAc
Method in brief: as §1

[16] = biological target: GlcNAc(b1-3)Gal(b1-4)GlcNAc(b1-3)GalNAc
Method in brief: as §1

[17] = biological target: GlcNAc(b1-3)Gal(b1-4)GlcNAc(b1-3)[GlcNAc(b1-3)Gal(b1-4)GlcNAc(b1-3)]GalNAc
Method in brief: as §1

[18] = biological target: GlcNAc(b1-3)Gal(b1-4)GlcNAc(b1-6)[Gal(b1-3)]GalNAc
Method in brief: as §1

[19] = biological target: GlcNAc(b1-3)Gal(b1-4)GlcNAc(b1-6)[GlcNAc(b1-3)Gal(b1-3)]GalNAc
Method in brief: as §1

[20] = biological target: GlcNAc(b1-3)Gal(b1-4)GlcNAc(b1-6)[GlcNAc(b1-3)]Gal(b1-4)GlcNAc
Method in brief: as §1

GlcNAc(b1-3)GalNAc = biological target: GlcNAc(b1-3)GalNAc
Method in brief: as §1

GlcNAc(b1-3)Man = biological target: GlcNAc(b1-3)Man
Method in brief: as §1

[21] = biological target: GlcNAc(b1-3)[GlcNAc(b1-4)][GlcNAc(b1-6)]GlcNAc
Method in brief: as §1

[22] = biological target: GlcNAc(b1-3)[GlcNAc(b1-6)]Gal(b1-4)GlcNAc
Method in brief: as §1

[23] = biological target: GlcNAc(b1-3)[GlcNAc(b1-6)]GalNAc
Method in brief: as §1

[24] = biological target: GlcNAc(b1-4)Gal(b1-4)GlcNAc
Method in brief: as §1

GlcNAc(b1-4)GlcNAc = biological target: GlcNAc(b1-4)GlcNAc
Method in brief: as §1

[25] = biological target: GlcNAc(b1-4)GlcNAc(b1-4)GlcNAc
Method in brief: as §1

[26] = biological target: GlcNAc(b1-4)GlcNAc(b1-4)GlcNAc(b1-4)GlcNAc(b1-4)GlcNAc
Method in brief: as §1

[27] = biological target: GlcNAc(b1-4)GlcNAc(b1-4)GlcNAc(b1-4)GlcNAc(b1-4)GlcNAc(b1-4)GlcNAc
Method in brief: as §1

[28] = biological target: GlcNAc(b1-4)[GlcNAc(b1-6)]GalNAc
Method in brief: as §1

[29] = biological target: GlcNAc(b1-6)Gal(b1-4)GlcNAc
Method in brief: as §1

GlcNAc(b1-6)GalNAc = biological target: GlcNAc(b1-6)GalNAc
Method in brief: as §1

[30] = biological target: GlcNAc6S(b1-3)Gal(b1-4)GlcNAc
Method in brief: as §1

Kdn(a2-3)Gal(b1-3)GalNAc = biological target: Kdn(a2-3)Gal(b1-3)GalNAc
Method in brief: as §1

Kdn(a2-3)Gal(b1-3)GlcNAc = biological target: Kdn(a2-3)Gal(b1-3)GlcNAc
Method in brief: as §1

Kdn(a2-3)Gal(b1-4)Glc = biological target: Kdn(a2-3)Gal(b1-4)Glc
Method in brief: as §1

Kdn(a2-3)Gal(b1-4)GlcNAc = biological target: Kdn(a2-3)Gal(b1-4)GlcNAc
Method in brief: as §1

[31] = biological target: Kdn(a2-3)Gal(b1-4)[Fuc(a1-3)]GlcNAc
Method in brief: as §1

Kdn(a2-6)Gal(b1-4)GlcNAc = biological target: Kdn(a2-6)Gal(b1-4)GlcNAc
Method in brief: as §1

[32] = biological target: Man(a1-2)Man(a1-2)Man(a1-3)Man
Method in brief: as §1

[33] = biological target: Man(a1-2)Man(a1-2)Man(a1-6)[Man(a1-3)]Man
Method in brief: as §1

Man(a1-2)Man(a1-3)Man = biological target: Man(a1-2)Man(a1-3)Man
Method in brief: as §1

[34] = biological target: Man(a1-2)Man(a1-3)[Man(a1-2)Man(a1-6)]Man
Method in brief: as §1

B1: EULS2 M3 (Oryza sativa) (protein)
chain: MVYCRANPNYAMTARNGAVVLAPANPKDEYQHWIKDMRWSTSIKDEEGYPAFALVNKATGQAIKHSLGQSHPVRLVPYNPEVMDESVLWTESRDVGNGFRCIRMVNNIYLNFDAFHGDKYHGGVRDGTDIVLWKLCEGDSLRWKIQPYYILEQKLISEEDLNSAVDHHHHHH
- glycan array binding signal (z-score) (GlcNAc(b1-3)Gal(b1-4)Glc): -0.168
- glycan array binding signal (z-score) [1]: -0.359
- glycan array binding signal (z-score) [2]: -0.171
- glycan array binding signal (z-score) [3]: 0.353
- glycan array binding signal (z-score) [4]: 0.562
- glycan array binding signal (z-score) [5]: -0.273
- glycan array binding signal (z-score) [6]: 0.743
- glycan array binding signal (z-score) [7]: -0.12
- glycan array binding signal (z-score) [8]: 0.584
- glycan array binding signal (z-score) [9]: -0.02
- glycan array binding signal (z-score) [10]: 0.151
- glycan array binding signal (z-score) [11]: 0.306
- glycan array binding signal (z-score) [12]: 0.326
- glycan array binding signal (z-score) [13]: 0.453
- glycan array binding signal (z-score) [14]: -0.05
- glycan array binding signal (z-score) [15]: -0.182
- glycan array binding signal (z-score) [16]: -0.378
- glycan array binding signal (z-score) [17]: -0.074
- glycan array binding signal (z-score) [18]: -0.254
- glycan array binding signal (z-score) [19]: -0.435
- glycan array binding signal (z-score) [20]: -0.011
- glycan array binding signal (z-score) (GlcNAc(b1-3)GalNAc): -0.577
- glycan array binding signal (z-score) (GlcNAc(b1-3)Man): 0.383
- glycan array binding signal (z-score) [21]: -0.039
- glycan array binding signal (z-score) [22]: 0.163
- glycan array binding signal (z-score) [23]: 0.487
- glycan array binding signal (z-score) [24]: -0.079
- glycan array binding signal (z-score) (GlcNAc(b1-4)GlcNAc): -0.142
- glycan array binding signal (z-score) [25]: -0.413
- glycan array binding signal (z-score) [26]: 0.11
- glycan array binding signal (z-score) [27]: -0.977
- glycan array binding signal (z-score) [28]: -0.16
- glycan array binding signal (z-score) [29]: 1.64
- glycan array binding signal (z-score) (GlcNAc(b1-6)GalNAc): -0.608
- glycan array binding signal (z-score) [30]: -0.064
- glycan array binding signal (z-score) (Kdn(a2-3)Gal(b1-3)GalNAc): -0.224
- glycan array binding signal (z-score) (Kdn(a2-3)Gal(b1-3)GlcNAc): -0.44
- glycan array binding signal (z-score) (Kdn(a2-3)Gal(b1-4)Glc): -0.045
- glycan array binding signal (z-score) (Kdn(a2-3)Gal(b1-4)GlcNAc): -0.754
- glycan array binding signal (z-score) [31]: 0.28
- glycan array binding signal (z-score) (Kdn(a2-6)Gal(b1-4)GlcNAc): -0.599
- glycan array binding signal (z-score) [32]: -0.295
- glycan array binding signal (z-score) [33]: 0.213
- glycan array binding signal (z-score) (Man(a1-2)Man(a1-3)Man): 0.653
- glycan array binding signal (z-score) [34]: -0.066
